Source: publication PMC4034400
No constants are given. Whether binding was seen depends on the method and setting. In cells and extracts the contact can be indirect. For some assays here: A result given as binding can be weak or reduced; the word gives no strength. For some assays here: Tags and fused reporters may be left off the sequences shown. One block for each molecule: values may come before it.

Amino acid sequences for entries named in this document (tags omitted). A change or cut given only in a name is not applied to a line headed by its entry.
UniProt Q9VWQ1: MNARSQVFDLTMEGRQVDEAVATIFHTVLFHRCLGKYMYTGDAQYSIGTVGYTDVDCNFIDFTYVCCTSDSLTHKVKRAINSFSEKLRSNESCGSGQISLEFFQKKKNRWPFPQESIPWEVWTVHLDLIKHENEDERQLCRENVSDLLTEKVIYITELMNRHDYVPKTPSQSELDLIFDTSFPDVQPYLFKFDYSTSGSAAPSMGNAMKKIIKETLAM

Key:
[1] = biological target: T1, full-length 3xHA-Atg13 (Drosophila) (UniProt Q9VHR6); assay: co-IP; transfected Drosophila D.Mel-2 cells; the HA-tagged protein precipitated (anti-HA beads), the myc- or FLAG-tagged partner detected; beads alone as control
T1 sequence: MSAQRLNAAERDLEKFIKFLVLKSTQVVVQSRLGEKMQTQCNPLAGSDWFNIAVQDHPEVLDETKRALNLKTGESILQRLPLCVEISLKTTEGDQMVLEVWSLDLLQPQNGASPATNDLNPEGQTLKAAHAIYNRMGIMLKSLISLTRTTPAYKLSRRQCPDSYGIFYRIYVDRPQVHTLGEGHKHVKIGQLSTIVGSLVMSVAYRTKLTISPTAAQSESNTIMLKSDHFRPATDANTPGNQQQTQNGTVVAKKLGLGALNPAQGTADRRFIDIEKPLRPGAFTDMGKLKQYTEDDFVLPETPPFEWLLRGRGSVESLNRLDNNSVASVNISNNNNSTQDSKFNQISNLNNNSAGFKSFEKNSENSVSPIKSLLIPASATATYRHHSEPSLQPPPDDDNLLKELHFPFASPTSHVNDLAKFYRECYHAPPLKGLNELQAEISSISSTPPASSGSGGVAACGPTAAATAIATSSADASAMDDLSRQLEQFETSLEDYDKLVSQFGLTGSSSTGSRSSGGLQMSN

[2] = biological target: 3xFLAG-Atg101 (Drosophila) (UniProt Q9VWQ1); assay: co-IP; transfected Drosophila D.Mel-2 cells; the FLAG-tagged Atg101 precipitated (anti-FLAG beads), the HA-tagged partner detected; beads alone as control
[3] = biological target: Atg101-3xFLAG (Drosophila) (UniProt Q9VWQ1); assay: as above
[4] = biological target: 3xHA-Atg101 (Drosophila) (UniProt Q9VWQ1); assay: co-IP; transfected Drosophila D.Mel-2 cells; the HA-tagged protein precipitated (anti-HA beads), the myc- or FLAG-tagged partner detected; beads alone as control
[5] = biological target: T2, 3xHA-GST-Atg1 fragment 233–360 (Drosophila) (UniProt Q9VU14); assay: as above
T2 sequence: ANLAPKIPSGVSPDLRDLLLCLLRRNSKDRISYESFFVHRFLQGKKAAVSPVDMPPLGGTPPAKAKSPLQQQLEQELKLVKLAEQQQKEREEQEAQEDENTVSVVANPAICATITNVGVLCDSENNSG

[6] = biological target: T3, 3xHA-GST-Atg1 fragment 364–459 (Drosophila) (UniProt Q9VU14); assay: as above
T3 sequence: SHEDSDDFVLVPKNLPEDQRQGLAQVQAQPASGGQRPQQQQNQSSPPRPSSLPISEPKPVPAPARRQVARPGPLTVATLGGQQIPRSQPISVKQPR

[7] = biological target: T4, 3xHA-GST-Atg1 fragment 461–570 (Drosophila) (UniProt Q9VU14); assay: as above
T4 sequence: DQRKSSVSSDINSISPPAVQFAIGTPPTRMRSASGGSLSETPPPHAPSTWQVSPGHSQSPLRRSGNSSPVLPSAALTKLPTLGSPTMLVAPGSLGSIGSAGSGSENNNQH

[8] = biological target: T5, 3xHA-GST-Atg1 fragment 565–725 (Drosophila) (UniProt Q9VU14); assay: as above
T5 sequence: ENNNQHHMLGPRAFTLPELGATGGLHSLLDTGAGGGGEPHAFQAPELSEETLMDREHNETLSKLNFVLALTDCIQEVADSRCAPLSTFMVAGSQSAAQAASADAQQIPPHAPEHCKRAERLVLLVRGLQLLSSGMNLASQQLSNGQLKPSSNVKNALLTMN

Molecule: 3xHA-Atg101 (from UniProt Q9VWQ1)
binding [2]: binds
binding [3]: binds

Molecule: Atg101-3xFLAG (from UniProt Q9VWQ1)
binding [4]: binds
binding [5]: binds
binding [6]: no binding
binding [7]: no binding
binding [8]: binds

B1: HA-GFP-Atg13 fragment 1–398 (domain or fragment, UniProt Q9VHR6 1-398)
chain: MSAQRLNAAERDLEKFIKFLVLKSTQVVVQSRLGEKMQTQCNPLAGSDWFNIAVQDHPEVLDETKRALNLKTGESILQRLPLCVEISLKTTEGDQMVLEVWSLDLLQPQNGASPATNDLNPEGQTLKAAHAIYNRMGIMLKSLISLTRTTPAYKLSRRQCPDSYGIFYRIYVDRPQVHTLGEGHKHVKIGQLSTIVGSLVMSVAYRTKLTISPTAAQSESNTIMLKSDHFRPATDANTPGNQQQTQNGTVVAKKLGLGALNPAQGTADRRFIDIEKPLRPGAFTDMGKLKQYTEDDFVLPETPPFEWLLRGRGSVESLNRLDNNSVASVNISNNNNSTQDSKFNQISNLNNNSAGFKSFEKNSENSVSPIKSLLIPASATATYRHHSEPSLQPPPDDD
binding [3]: binds

B2: HA-GFP-Atg13 fragment 1–230 (domain or fragment, UniProt Q9VHR6 1-230)
chain: MSAQRLNAAERDLEKFIKFLVLKSTQVVVQSRLGEKMQTQCNPLAGSDWFNIAVQDHPEVLDETKRALNLKTGESILQRLPLCVEISLKTTEGDQMVLEVWSLDLLQPQNGASPATNDLNPEGQTLKAAHAIYNRMGIMLKSLISLTRTTPAYKLSRRQCPDSYGIFYRIYVDRPQVHTLGEGHKHVKIGQLSTIVGSLVMSVAYRTKLTISPTAAQSESNTIMLKSDHF
binding [3]: binds

The next lines start with the values.

binding [1]: binds
Molecule: N-terminally truncated 3xFLAG-ref(2)P lacking the PB1 domain (Drosophila) (domain or fragment)

binding [4]: binds
Molecule: kinase dead myc-Atg1 (from UniProt Q9VU14) (enzyme)

binding [3]: binds
B3: full-length 3xHA-Atg13 (protein, UniProt Q9VHR6 1-523)
chain: MSAQRLNAAERDLEKFIKFLVLKSTQVVVQSRLGEKMQTQCNPLAGSDWFNIAVQDHPEVLDETKRALNLKTGESILQRLPLCVEISLKTTEGDQMVLEVWSLDLLQPQNGASPATNDLNPEGQTLKAAHAIYNRMGIMLKSLISLTRTTPAYKLSRRQCPDSYGIFYRIYVDRPQVHTLGEGHKHVKIGQLSTIVGSLVMSVAYRTKLTISPTAAQSESNTIMLKSDHFRPATDANTPGNQQQTQNGTVVAKKLGLGALNPAQGTADRRFIDIEKPLRPGAFTDMGKLKQYTEDDFVLPETPPFEWLLRGRGSVESLNRLDNNSVASVNISNNNNSTQDSKFNQISNLNNNSAGFKSFEKNSENSVSPIKSLLIPASATATYRHHSEPSLQPPPDDDNLLKELHFPFASPTSHVNDLAKFYRECYHAPPLKGLNELQAEISSISSTPPASSGSGGVAACGPTAAATAIATSSADASAMDDLSRQLEQFETSLEDYDKLVSQFGLTGSSSTGSRSSGGLQMSN

binding [3]: no binding
B4: HA-GFP-Atg13 fragment 231–398 (domain or fragment, UniProt Q9VHR6 231-398)
chain: RPATDANTPGNQQQTQNGTVVAKKLGLGALNPAQGTADRRFIDIEKPLRPGAFTDMGKLKQYTEDDFVLPETPPFEWLLRGRGSVESLNRLDNNSVASVNISNNNNSTQDSKFNQISNLNNNSAGFKSFEKNSENSVSPIKSLLIPASATATYRHHSEPSLQPPPDDD

binding [3]: no binding
B5: HA-GFP-Atg13 fragment 393–523 (domain or fragment, UniProt Q9VHR6 393-523)
chain: PPPDDDNLLKELHFPFASPTSHVNDLAKFYRECYHAPPLKGLNELQAEISSISSTPPASSGSGGVAACGPTAAATAIATSSADASAMDDLSRQLEQFETSLEDYDKLVSQFGLTGSSSTGSRSSGGLQMSN
